The values that follow come from patent US12521402B2, “Biomarker and drug combinations for heart failure prediction” (Endothelium Scanning Nanotechnology Limited, priority 2022, dated 2026).

A short description of the data set: Saliva proteomics: biomarker quantification by mass spectrometry SWATH in participants at risk of heart failure vs controls. The following applies: for AtRisk average: 'at risk' of heart failure group mean; for AtRisk average / Control average: mass spectrometry SWATH quantification; for Control average: control group mean. Also noted: species or system human.
[1] abbreviates: differential expression (fold) control vs 'at risk' group, saliva.

B1: QCR6 (protein, UniProt P07919 14-91, looked up)
Cytochrome b-c1 complex …: GDPEEEEEEEEELVDPLTTVREQCEQLEKCVKARERLELCDERVSSRSHTEEDCTEELFDFLHARDHCVAHKLFNNLK
With B1, the “Control vs Risk” value under setting [1] came out at 1.94. In addition, for the setting “saliva, 20 samples”, the AtRisk average is given as 214,983 ng/ml and the Control average is 110,633 ng/ml.

B2: C1TC (protein, UniProt P11586 1-935, looked up)
C-1-tetrahydrofolate …: MAPAEILNGKEISAQIRARLKNQVTQLKEQVPGFTPRLAILQVGNRDDSNLYINVKLKAAEEIGIKATHIKLPRTTTESEVMKYITSLNEDSTVHGFLVQLPLDSENSINTEEVINAIAPEKDVDGLTSINAGKLARGDLNDCFIPCTPKGCLELIKETGVPIAGRHAVVVGRSKIVGAPMHDLLLWNNATVTTCHSKTAHLDEEVNKGDILVVATGQPEMVKGEWIKPGAIVIDCGINYVPDDKKPNGRKVVGDVAYDEAKERASFITPVPGGVGPMTVAMLMQSTVESAKRFLEKFKPGKWMIQYNNLNLKTPVPSDIDISRSCKPKPIGKLAREIGLLSEEVELYGETKAKVLLSALERLKHRPDGKYVVVTGITPTPLGEGKSTTTIGLVQALGAHLYQNVFACVRQPSQGPTFGIKGGAAGGGYSQVIPMEEFNLHLTGDIHAITAANNLVAAAIDARIFHELTQTDKALFNRLVPSVNGVRRFSDIQIRRLKRLGIEKTDPTTLTDEEINRFARLDIDPETITWQRVLDTNDRFLRKITIGQAPTEKGHTRTAQFDISVASEIMAVLALTTSLEDMRERLGKMVVASSKKGEPVSAEDLGVSGALTVLMKDAIKPNLMQTLEGTPVFVHAGPFANIAHGNSSIIADRIALKLVGPEGFVVTEAGFGADIGMEKFFNIKCRYSGLCPHVVVLVATVRALKMHGGGPTVTAGLPLPKAYIQENLELVEKGFSNLKKQIENARMFGIPVVVAVNAFKTDTESELDLISRLSREHGAFDAVKCTHWAEGGKGALALAQAVQRAAQAPSSFQLLYDLKLPVEDKIRIIAQKIYGADDIELLPEAQHKAEVYTKQGFGNLPICMAKTHLSLSHNPEQKGVPTGFILPIRDIRASVGAGFLYPLVGTMSTMPGLPTRPCFYDIDLDPETEQVNGLF
As for B2, the “Control vs Risk” value under setting [1] is 1.95. Moreover, for the setting “saliva, 20 samples”, the AtRisk average was 40,698 ng/ml and the Control average was 79,459 ng/ml.

B3: BAF (protein, UniProt O75531 1-89, looked up)
Barrier-to-autointegration …: MTTSQKHRDFVAEPMGEKPVGSLAGIGEVLGKKLEERGFDKAYVVLGQFLVLKKDEDLFREWLKDTCGANAKQSRDCFGCLREWCDAFL
As for B3, under setting [1], the “Control vs Risk” value is recorded as 2.01. For the same molecule, for the setting “saliva, 20 samples”, the AtRisk average is given as 50,325 ng/ml and the Control average was 25,077 ng/ml.

B4: ENY2 (protein, UniProt Q9NPA8 1-101, looked up)
Transcription and mRNA export …: MVVSKMNKDAQMRAAINQKLIETGERERLKELLRAKLIECGWKDQLKAHCKEVIKEKGLEHVTVDDLVAEITPKGRALVPDSVKKELLQRIRTFLAQHASL
Take B4: under setting [1], the “Control vs Risk” value is given as 1.93. Under “saliva, 20 samples”, the AtRisk average is 55,945 ng/ml and the Control average is reported as 28,926 ng/ml.

B5: ZA2G (protein, UniProt P25311 21-298, looked up)
Zinc-alpha-2-glycoprotein: QENQDGRYSLTYIYTGLSKHVEDVPAFQALGSLNDLQFFRYNSKDRKSQPMGLWRQVEGMEDWKQDSQLQKAREDIFMETLKDIVEYYNDSNGSHVLQGRFGCEIENNRSSGAFWKYYYDGKDYIEFNKEIPAWVPFDPAAQITKQKWEAEPVYVQRAKAYLEEECPATLRKYLKYSKNILDRQDPPSVVVTSHQAPGEKKKLKCLAYDFYPGKIDVHWTRAGEVQEPELRGDVLHNGNGTYQSWVVVAVPPQDTAPYSCHVQHSSLAQPLVVPWEAS
B5: under setting [1], the “Control vs Risk” value came to 1.93. For the same molecule, where the note is “saliva, 20 samples”, the AtRisk average was 63,955,674 ng/ml and the Control average was 33,074,828 ng/ml.

B6: TBCC (protein, UniProt Q15814 1-346, looked up)
Tubulin-specific chaperone C: MESVSCSAAAVRTGDMESQRDLSLVPERLQRREQERQLEVERRKQKRQNQEVEKENSHFFVATFVRERAAVEELLERAESVERLEEAASRLQGLQKLINDSVFFLAAYDLRQGQEALARLQAALAERRRGLQPKKRFAFKTRGKDAASSTKVDAAPGIPPAVESIQDSPLPKKAEGDLGPSWVCGFSNLESQVLEKRASELHQRDVLLTELSNCTVRLYGNPNTLRLTKAHSCKLLCGPVSTSVFLEDCSDCVLAVACQQLRIHSTKDTRIFLQVTSRAIVEDCSGIQFAPYTWSYPEIDKDFESSGLDRSKNNWNDVDDFNWLARDMASPNWSILPEEERNIQWD
As for B6, the “Control vs Risk” value under setting [1] is recorded as 1.95. For the same molecule, under “saliva, 20 samples”, the AtRisk average is 48,145 ng/ml and the Control average is 93,935 ng/ml.

B7: ANGT (protein, UniProt P01019 25-476, looked up)
Angiotensinogen: DRVYIHPFHLVIHNESTCEQLAKANAGKPKDPTFIPAPIQAKTSPVDEKALQDQLVLVAAKLDTEDKLRAAMVGMLANFLGFRIYGMHSELWGVVHGATVLSPTAVFGTLASLYLGALDHTADRLQAILGVPWKDKNCTSRLDAHKVLSALQAVQGLLVAQGRADSQAQLLLSTVVGVFTAPGLHLKQPFVQGLALYTPVVLPRSLDFTELDVAAEKIDRFMQAVTGWKTGCSLMGASVDSTLAFNTYVHFQGKMKGFSLLAEPQEFWVDNSTSVSVPMLSGMGTFQHWSDIQDNFSVTQVPFTESACLLLIQPHYASDLDKVEGLTFQQNSLNWMKKLSPRTIHLTMPQLVLQGSYDLQDLLAQAELPAILHTELNLQKLSNDRIRVGEVLNSIFFELEADEREPTESTQQLNKPEVLEVTLNRPFLFAVYDQSATALHFLGRVANPLSTA
In the case of B7, under setting [1], the “Control vs Risk” value was determined as 2.00. In addition, under “saliva, 20 samples”, the AtRisk average is 102,940 ng/ml and the Control average is given as 51,445 ng/ml.

B8: CALL5 (protein, UniProt Q9NZT1 2-146, looked up)
Calmodulin-like protein 5: AGELTPEEEAQYKKAFSAVDTDGNGTINAQELGAALKATGKNLSEAQLRKLISEVDSDGDGEISFQEFLTAAKKARAGLEDLQVAFRAFDQDGDGHITVDELRRAMAGLGQPLPQEELDAMIREADVDQDGRVNYEEFARMLAQE
As for B8, the “Control vs Risk” value (differential expression (fold) control vs 'at risk', printed as larger/smaller average whatever the direction) was found to be 6.50. Where the note is “saliva”, the AtRisk average is recorded as 1,902,352 ng/ml and the Control average is recorded as 292,820 ng/ml.

B9: T132A (protein, UniProt Q24JP5 36-1023, looked up)
Transmembrane protein 132A: CGQAPLDPVYLPAALELLDAPEHFRVQQVGHYPPANSSLSSRSETFLLLQPWPRAQPLLRASYPPFATQQVVPPRVTEPHQRPVPWDVRAVSVEAAVTPAEPYARVLFHLKGQDWPPGSGSLPCARLHATHPAGTAHQACRFQPSLGACVVELELPSHWFSQASTTRAELAYTLEPAAEGPGGCGSGEENDPGEQALPVGGVELRPADPPQYQEVPLDEAVTLRVPDMPVRPGQLFSATLLLRHNFTASLLTLRIKVKKGLHVTAARPAQPTLWTAKLDRFKGSRHHTTLITCHRAGLTEPDSSPLELSEFLWVDFVVENSTGGGVAVTRPVTWQLEYPGQAPEAEKDKMVWEILVSERDIRALIPLAKAEELVNTAPLTGVPQHVPVRLVTVDGGGALVEVTEHVGCESANTQVLQVSEACDAVFVAGKESRGARGVRVDFWWRRLRASLRLTVWAPLLPLRIELTDTTLEQVRGWRVPGPAEGPAEPAAEASDEAERRARGCHLQYQRAGVRFLAPFAAHPLDGGRRLTHLLGPDWLLDVSHLVAPHARVLDSRVASLEGGRVVVGREPGVTSIEVRSPLSDSILGEQALAVTDDKVSVLELRVQPVMGISLTLSRGTAHPGEVTATCWAQSALPAPKQEVALSLWLSFSDHTVAPAELYDRRDLGLSVSAEEPGAILPAEEQGAQLGVVVSGAGAEGLPLHVALHPPEPCRRGRHRVPLASGTAWLGLPPASTPAPALPSSPAWSPPATEATMGGKRQVAGSVGGNTGVRGKFERAEEEARKEETEAREEEEEEEEEMVPAPQHVTELELGMYALLGVFCVAIFIFLVNGVVFVLRYQRKEPPDSATDPTSPQPHNWVWLGTDQEELSRQLDRQSPGPPKGEGSCPCESGGGGEAPTLAPGPPGGTTSSSSTLARKEAGGRRKRVEFVTFAPAPPAQSPEEPVGAPAVQSILVAGEEDIRWVCEDMGLKDPEELRNYMERIRGSS
With B9, under setting [1], the “Control vs Risk” value worked out at 1.98. Under “saliva, 20 samples”, the AtRisk average was 71,196 ng/ml and the Control average is 141,239 ng/ml.
